Assay results taken from US8399414B2, “Analgesics” (NRL Pharma, Inc., priority 2002, dated 2013).
At least one compound was matched to its structure with a doubt left.

Assays:
TNF-α production = assay: LPS-stimulated cytokine production in rats with adjuvant arthritis, ELISA (Example 8); assay type: in vivo, rat; conditions: dexamethasone 1 mg/kg administered group
Description: (§1) It is known that in adjuvant arthritis models, the production of cytokines due to the LPS stimulation increases considerably, compared with normal animals, because the reactivity of their immune system increases due to chronic inflammation.
(§2) One mg/kg of LPS was administered intraperitoneally to rats with adjuvant arthritis to stimulate the production of cytokines. Three hours after the LPS administration, the blood was collected from each rat and the quantities of cytokines were measure by ELISA. The groups to be administered a single dose of lactoferrin (groups B and C) were given orally 0.5% CMC once daily until the experiment day to allow the experiment conditions to match those of the group to be administered lactoferrin for 19 consecutive days. The group to be administered lactoferrin for 19 consecutive days (group E) was administered orally lactoferrin once daily from the very day when treated with adjuvant. The design of the experiment is shown in Table 2 and the results in FIG. 14.

IL-10 production = assay: as above; assay type: in vivo, rat; conditions: dexamethasone 1 mg/kg administered group
Description: as §1, §2

[1] = tested on: adjuvant arthritis rat model; assay: adjuvant arthritis rat model, treatment in chronic phase (Example 6); assay type: in vivo
Description: Subsequently after Example 5, lactoferrin (100 mg/kg) was orally administered for 7 consecutive days starting from day 19 after the adjuvant treatment, when the adjuvant treated rats were in the chronic phase of inflammation.

[2] = tested on: adjuvant arthritis rat model; assay type: in vivo; conditions: LF 100 mg/kg oral sid or bid, Dex 1 mg/kg i.p. sid, 18 consecutive days from day 0; FIG. 10
Description: The preventive/therapeutic effects against arthritis of orally administered lactoferrin (LF) and the mechanism of the action were examined using an adjuvant arthritis rat model as an animal model with rheumatoid arthritis.
Evaluation of the above described effects was performed by measuring the change in volume of foot due to swelling, Flexion test (pain in joints caused in flexion and extension test), and the production of cytokine by the stimulation of lipopolysaccharide.
Adjuvant was injected subcutaneously into the sole of the right hind leg of each rat, and the volume of the feet was measured once a day to obtain the swelling rate of the feet of both hind legs. The test substance was suspended in 0.5% CMC and administered once or twice a day for 18 consecutive days starting from the first dose 3 hours before adjuvant treatment (day 0). On 4th and 10th days after treating with adjuvant, the swollen tarsal joint of each rat was extended 10 times and the number of times each rat screamed due to the stimulation of pain sensation caused by flexing and extending its tarsal joint was measured.

With `C[C@@H]1C[C@H]2[C@@H]3CCC4=CC(=O)C=C[C@]4(C)[C@@]3(F)[C@@H](O)C[C@]2(C)[C@@]1(O)C(=O)CO` [dexamethasone, reference compound] the TNF-α production (TNF-α production) was “decrease”, the IL-10 production (IL-10 production) was “decrease” and the “pain index in Flexion test” value ([1]; 7 consecutive days from day 19, LF vs control from day 1, Dex vs lactoferrin groups, FIG. 12C) was “a little higher”. The swelling of feet ([1]; 7 consecutive days from day 19 after adjuvant, LF 100 mg/kg oral (day 7 vs control), Dex 1 mg/kg (from day 1)) was “obviously reduced” and the “swelling rate of the feet” value [2] was “lower in the dexamethasone administered group”.
